From patent publication US7816523B2, “Potentiators of glutamate receptors” (Eli Lilly and Company, priority 2004, dated 2010)
Some entries share one result that the patent states for a list of compounds.

System: extravasation in the dura
Test: Animal model of dural plasma protein extravasation (PPE)
Assay type: in vivo, Harlan Sprague-Dawley rats
Details: p.o., rat, electrical stimulation of trigeminal ganglion

Row | SMILES | extravasation in the dura, ID100
1 | CCCc1c(OCc2ccc(C(O)c3cccc(C(=O)O)c3)cc2)ccc(C(C)=O)c1O (single isomer, unassigned; isomer 1) [Example 83, (+)-3-{[4-(4-Acetyl-3-hydroxy-2-propyl-phenoxymethyl)-phenyl]-hydroxy-methyl}-benzoic acid isomer 1] | less than or equal to 0.1 mg/kg
2 | CC(=O)c1ccc(OCc2ccc(Cc3cccc(C(=O)O)c3)cc2)c(Cl)c1O [Example 65, 3-[4-(4-Acetyl-2-chloro-3-hydroxy-phenoxymethyl)-benzyl]-benzoic acid] | less than or equal to 0.1 mg/kg
3 | CCCc1c(OCc2ccc(Cc3cccc(-c4nn[nH]n4)c3)cc2)ccc(C(C)=O)c1O [Example 60, 1-(2-hydroxy-3-propyl-4-{4-[3-(1H-tetrazol-5-yl)-benzyl]-benzyloxy}-phenyl)-ethanone] | less than or equal to 0.1 mg/kg
